Measurements taken from patent US20040063907A1 (published 2004).

Target: HLA-A*0201 (human)
Assay: fluorescence polarization competition, test peptide at 100 uM

ITNSRPPCV [C35 peptide I105 to V113]
binding: binds

Results are given in words; binding and its absence hold for the method and conditions named. Binding can be weak; no strength is given.
